Measured values taken from patent US9963472B2, “Stable pantetheine derivatives for the treatment of pantothenate kinase associated neurodegeneration (PKAN) and methods for the synthesis of such compounds” (ACIES BIO D.O.O., priority 2013, dated 2018).
Some results were stated once for a whole list of compounds, not compound by compound. At least one structure is not confirmed: it was looked up by name or label, or the drawing left a doubt.

Experiment: Stability in fetal calf serum (HPLC of remaining compound)
Type: in vitro ADME
Conditions: 1 mM in FCS, 30 minutes at 37° C., triplicate

Row | Compound | degradation in serum
1 | CC(C)(COP(=O)(O)O)[C@@H](O)C(=O)NCCC(=O)NCCS [4′-phosphopantetheine] | less than 10%
2 | (S)-acetyl-4′-phosphopantetheine | less than 10%
